Results on one molecule are retold here after patent US20160304578A1 (XYPHOS BIOSCIENCES, published 2016).

The target in test [1] is T1, mouse NKG2D-Fc (mouse) (UniProt O54709).
T1 sequence (looked up): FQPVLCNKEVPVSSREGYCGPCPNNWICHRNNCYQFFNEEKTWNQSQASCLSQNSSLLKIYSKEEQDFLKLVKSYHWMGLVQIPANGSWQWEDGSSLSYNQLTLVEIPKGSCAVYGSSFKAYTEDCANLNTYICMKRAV
Put plainly: competition ELISA: protein titrated against mouse NKG2D-Fc binding to plate-coated WT sMICA, detection with anti-Fc-HRP.

In test [2] the target is T1, mouse NKG2D-Fc (mouse). Put plainly: competition ELISA: mouse NKG2D-Fc binding to plate-coated MICA. Background: ELISA stands for enzyme-linked immunosorbent assay.

These are yes or no findings as the source states them, for the method shown. Some entries that bind do so weakly or less than the wild type. Tags and fused reporters may be left off the sequences shown.

B1: WT α1-α2 soluble MICA protein (ligand, UniProt Q29983 24-299, looked up)
chain: EPHSLRYNLTVLSWDGSVQSGFLTEVHLDGQPFLRCDRQKCRAKPQGQWAEDVLGNKTWDRETRDLTGNGKDLRMTLAHIKDQKEGLHSLQEIRVCEIHEDNSTRSSQHFYYDGELFLSQNLETKEWTMPQSSRAQTLAMNVRNFLKEDAMKTKTHYHAMHADCLQELRRYLKSGVVLRRTVPPMVNVTRSEASEGNITVTCRASGFYPWNITLSWRQDGVSLSHDTQQWGDVLPDGNGTYQTWVATRICQGEEQRFTCYMEHSGNHSTHPVPSGK
notes: also called WT MICA; WT NKG2DL
With B1, the binding result in the test with mouse NKG2D-Fc (mouse) [1] and in the test with mouse NKG2D-Fc (mouse) [2] was “binds” each time.
